# Laboratory results published in PubChem BioAssay (NCATS).
# The inconclusive results got no clear call from the source; some entries with a clear call stand among them for comparison. For some assays here: A potency beside an inconclusive call is a rough fit, not a confirmed value. The source made the active and inactive calls. Calls come from the whole dose curve; as a rule, active = well fitted cell-killing curve with a large enough effect; inconclusive = small, poorly fitted or top-dose-only effect, or effect the other way; inactive = no such curve, though single readings can be large or run the other way.
# Assays:
# [1] = Quantitative High-Throughput drug screen in 47 multiple myeloma cell lines against the NCATS MIPE library collection: ARD_JJKsccE7 cell viability assay (AID 1918929); details: ARD myeloma cell line viability, CellTiter-Glo, 48 h; viability: at 45.8 µM (top of the series)
# Method in brief: (§1)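 Primary qHTS used for cherry-picking: cells at 500/well, library compounds for 48 h (37C, 5% CO2), luminescent ATP assay.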
# [2] = Quantitative High-Throughput drug screen in 47 multiple myeloma cell lines against the NCATS MIPE library collection: Karpas417_ECACC cell viability assay (AID 1918961); details: Karpas417 myeloma viability, CellTiter-Glo ATP luminescence, 48 h; viability (% of DMSO): at 45.8 µM (top of the series)
# Method in brief: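 Myeloma cells (500 per well) were exposed to MIPE 4.0 compounds by pin transfer and incubated 48 hours at 37C, 5% CO2. Viability was read as ATP by CellTiter-Glo luminescence, normalised to DMSO (100%) and media-only (0%) wells.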
# [3] = Quantitative High-Throughput drug screen in 47 multiple myeloma cell lines against the NCATS MIPE library collection: KMM1_JCRB cell viability assay (AID 1918960); details: KMM1 myeloma viability, CellTiter-Glo ATP luminescence, 48 h; viability (% of DMSO): at 45.8 µM (top of the series); note: nearly all actives have a fitted effect of over 30% in size
# Method in brief: (§2)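 Here, 48 h treatment with MIPE 4.0 agents at 37 °C preceded an ATP luminescence read. Plating density was 500 cells per well.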
# [4] = Quantitative High-Throughput drug screen in 47 multiple myeloma cell lines against the NCATS MIPE library collection: ARP1_JJKsccF8 cell viability assay (AID 1918928; note: nearly all actives have a fitted effect of over 40% in size); details: ARP1 myeloma cells viability, CellTiter-Glo ATP, 48 h; viability: at 45.8 µM (top of the series)
# Method in brief: as §2
# [5] = Quantitative High-Throughput drug screen in 47 multiple myeloma cell lines against the NCATS MIPE library collection: Karpas620_DSMZ cell viability assay (AID 1918959); details: Karpas620 myeloma viability, CellTiter-Glo ATP luminescence, 48 h; viability (% of DMSO): at 45.8 µM (top of the series); note: nearly all actives have a fitted effect of over 30% in size
# Method in brief: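 CellTiter-Glo luminescence (ATP) after 48 h compound exposure, 37C/5% CO2; 500 cells/well; MIPE 4.0 approved/investigational drugs pinned in; DMSO = 100%, media only = 0% viability.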
# [6] = Quantitative High-Throughput drug screen in 47 multiple myeloma cell lines against the NCATS MIPE library collection: AMO1_DSMZ cell viability assay (AID 1918927; note: nearly all actives have a fitted effect of over 30% in size); details: AMO1 myeloma cells viability, CellTiter-Glo ATP luminescence, 48 h; series mostly up to 45.8 µM
# Method in brief: as §1
# Potency is the fitted concentration of half-maximal effect.
compound,measurement,setting,value
Cn1cc(C[C@@H](N)C(=O)O)c2ccccc21,Potency,[1],"inconclusive: 0.0407 µM [cytotoxic, full curve, poor fit]"
same,Potency,[2],"inconclusive: 0.512 µM [rising, full curve, poor fit]"
COc1cc(Nc2c(C#N)cnc3cc(OCCCN4CCN(C)CC4)c(OC)cc23)c(Cl)cc1Cl,Potency,[1],"inconclusive: 2.96 µM [cytotoxic, full curve, poor fit]"
same,Potency,[3],"inconclusive: 2.09 µM [cytotoxic, full curve, poor fit]"
same,Potency,[2],"inconclusive: 3.32 µM [cytotoxic, partial curve, poor fit]"
COc1ccc(-c2cc3nccn3c(Nc3ncccc3C(N)=O)n2)cc1OC,Potency,[4],active: 4.69 µM
same,Potency,[3],"inconclusive: 0.235 µM [cytotoxic, full curve]"
same,Potency,[2],active: 0.166 µM
Cc1ccc(-c2ncn(-c3ccc(Nc4nccc(-c5cccc(N6CCOCC6)c5)n4)cc3)n2)cn1,Potency,[2],active: 0.0296 µM
CCN(CC)CCOc1ccc(Nc2ncc3cc(-c4c(Cl)cccc4Cl)c(=O)n(C)c3n2)cc1,Potency,[4],active: 2.64 µM
same,Potency,[2],active: 0.105 µM
O=C(NC1CCNCC1)c1[nH]ncc1NC(=O)c1c(Cl)cccc1Cl,Potency,[5],active: 0.935 µM
same,Potency,[2],active: 0.187 µM
Cc1ccc(Nc2nccc(N(C)c3ccc4c(C)n(C)nc4c3)n2)cc1S(N)(=O)=O,Potency,[6],active: 10.5 µM
same,Potency,[5],"inconclusive: 26.4 µM [cytotoxic, partial curve]"
same,Potency,[3],active: 14.8 µM
C[C@]12C=CC(=O)C=C1CC[C@@H]1[C@@H]2C(=O)C[C@@]2(C)[C@H]1CC[C@]2(O)C(=O)CO,Potency,[1],"inconclusive: 5.12 µM [cytotoxic, single point]"
same,Potency,[2],"inconclusive: 18.2 µM [rising, partial curve, poor fit]"
O=C(Nc1ncc(SCCN2CCCC2)s1)[C@]1(c2ccc(S(=O)(=O)C3CC3)cc2)C[C@@H]1C1CCCCC1,Potency,[4],active: 26.4 µM
same,Potency,[1],"inconclusive: 10.5 µM [cytotoxic, single point]"
same,Potency,[3],"inconclusive: 9.35 µM [cytotoxic, partial curve, poor fit]"
same,Potency,[2],active: 10.5 µM
CCC(C(=O)O)C1CCC(C)C(C(C)C(O)C(C)C(=O)C(CC)C2OC3(C=CC(O)[C@@]4(CC[C@](C)(C5CC[C@@](O)(CC)C(C)O5)O4)O3)C(C)CC2C)O1 (stereo partly specified),Potency,[5],"inconclusive: 3.72 µM [cytotoxic, partial curve]"
same,Potency,[3],"inconclusive: 0.418 µM [cytotoxic, full curve]"
same,Potency,[2],"inconclusive: 8.33 µM [cytotoxic, partial curve, poor fit]"
Cc1ccc(-c2cc(C(F)(F)F)nn2-c2ccc(S(N)(=O)=O)cc2)cc1,Potency,[6],inactive
same,Potency,[2],"inconclusive: 5.9 µM [cytotoxic, partial curve, poor fit]"
Cc1ccc(S(=O)(=O)N[C@@H](Cc2ccccc2)C(=O)CCl)cc1,Potency,[2],active: 11.8 µM
CC(C)CC(=O)Nc1n[nH]c2c1CN(C(=O)C1CCN(C)CC1)C2(C)C,Potency,[6],active: 1.66 µM
same,Potency,[1],active: 1.32 µM
same,Potency,[3],active: 1.18 µM
same,Potency,[2],active: 0.526 µM
CCCCN1CCC(CNC(=O)c2c3n(c4ccccc24)CCCO3)CC1,Potency,[1],active: 16.6 µM
same,Potency,[5],"inconclusive: 11.8 µM [cytotoxic, partial curve]"
same,Potency,[3],"inconclusive: 11.8 µM [cytotoxic, partial curve]"
C=CC(=O)Nc1cc(NC(=O)c2ccc(C)c(NC(=O)c3ccno3)c2)cc(C(F)(F)F)c1,Potency,[4],active: 16.6 µM
same,Potency,[1],active: 5.9 µM
same,Potency,[2],"inconclusive: 29.6 µM [rising, partial curve, poor fit]"
CCCCC[C@H](O)C=C[C@H]1[C@H](O)CC(=O)[C@H]1CCCCCCC(=O)O,Potency,[6],inactive
same,Potency,[1],inactive
same,Potency,[2],"inconclusive: 0.833 µM [cytotoxic, partial curve, poor fit]"

# Random excerpt: 4 entries already listed
compound,measurement,setting,value
C=CC(=O)Nc1cc(NC(=O)c2ccc(C)c(NC(=O)c3ccno3)c2)cc(C(F)(F)F)c1,Potency,[4],active: 16.6 µM
O=C(Nc1ncc(SCCN2CCCC2)s1)[C@]1(c2ccc(S(=O)(=O)C3CC3)cc2)C[C@@H]1C1CCCCC1,Potency,[3],"inconclusive: 9.35 µM [cytotoxic, partial curve, poor fit]"
C[C@]12C=CC(=O)C=C1CC[C@@H]1[C@@H]2C(=O)C[C@@]2(C)[C@H]1CC[C@]2(O)C(=O)CO,Potency,[1],"inconclusive: 5.12 µM [cytotoxic, single point]"
O=C(Nc1ncc(SCCN2CCCC2)s1)[C@]1(c2ccc(S(=O)(=O)C3CC3)cc2)C[C@@H]1C1CCCCC1,Potency,[4],active: 26.4 µM
